Some of the results follow. Single values are uncertain, as repeats are few or missing.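 The apoptosis fraction was the count of cleaved-PARP antibody-stained nuclei relative to all DNA-stained nuclei, imaged in 1,536-well plates. Screening doses were set so most cells survived, and baseline and induced cleaved-PARP levels vary greatly across cell lines.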
Columns and labels:
Experiment in all cases: cleaved PARP positive nuclei fraction relative to DMSO control; melanoma cells; higher = more apoptosis
Conditions in all cases: library dose: low library concentration; 72 h
[1] = system: 501Mel
[2] = system: A101D
[3] = system: A2058
[4] = system: C32
[5] = system: CBRC008 (line from a melanoma biopsy)
[6] = system: CBRC014 (line from a melanoma biopsy)
[7] = system: CBRC016 (line from a melanoma biopsy)
[8] = system: CBRC017 (line from a melanoma biopsy)
[9] = system: COLO792
[10] = system: COLO800
[11] = system: COLO829
[12] = system: G361
[13] = system: IPC-298
[14] = system: IST-MEL1
[15] = system: LB2518-MEL
[16] = system: LOXIMVI
[17] = system: A375
[18] = system: CBRC013 (line from a melanoma biopsy)
[19] = system: MEL-HO

| SMILES | cleaved PARP positive nuclei fraction [1] | cleaved PARP positive nuclei fraction [2] | cleaved PARP positive nuclei fraction [3] | cleaved PARP positive nuclei fraction [4] | cleaved PARP positive nuclei fraction [5] | cleaved PARP positive nuclei fraction [6] | cleaved PARP positive nuclei fraction [7] | cleaved PARP positive nuclei fraction [8] | cleaved PARP positive nuclei fraction [9] | cleaved PARP positive nuclei fraction [10] | cleaved PARP positive nuclei fraction [11] | cleaved PARP positive nuclei fraction [12] | cleaved PARP positive nuclei fraction [13] | cleaved PARP positive nuclei fraction [14] | cleaved PARP positive nuclei fraction [15] | cleaved PARP positive nuclei fraction [16] | cleaved PARP positive nuclei fraction [17] | cleaved PARP positive nuclei fraction [18] | cleaved PARP positive nuclei fraction [19] |
| --- | --- | --- | --- | --- | --- | --- | --- | --- | --- | --- | --- | --- | --- | --- | --- | --- | --- | --- | --- |
| CC(=O)c1c(C)c2cnc(Nc3ccc(N4CCNCC4)cn3)nc2n(C2CCCC2)c1=O [palbociclib] + Cc1cc([N+](=O)[O-])ccc1NS(=O)(=O)c1cc(Cl)ccc1Cl [FH535] (first compound 0.04 µM, partner dose 1 µM) | 223% | 34.4% | 105% | 54.8% | 245% | 303% | 652% | 355% | 95.5% | 135% | 66.6% | 110% | 90.6% | 119% | 95.3% | 63.5% |  |  |  |
| Clc1ccc(Nc2nnc(Cc3ccncc3)c3ccccc23)cc1 [vatalanib] + COc1ccc(-c2ccc3c(N4CCOCC4)nc(N4C[C@@H](C)O[C@@H](C)C4)nc3n2)cc1CO [KU0063794] (first compound 2 µM, partner dose 0.02 µM) | 41.4% | 167% | 61.8% | 124% | 79.5% | 102% | 22.6% | 89.1% | 124% | 105% | 68.4% | 107% | 55.8% | 102% | 20% | 77.4% |  |  |  |
| NC(=O)Nc1cc(-c2cccc(F)c2)sc1C(=O)N[C@H]1CCCNC1 + O=C(Nc1cccc(Cl)c1)Nc1ncc(CCNc2ncnc3ccsc23)s1 [SNS314] (first compound 0.02 µM, partner dose 0.0008 µM) |  | 89.8% | 140% | 307% | 65.7% | 89.6% | 194% | 213% | 184% | 90.5% | 95% | 84.4% | 249% | 58.1% |  | 276% | 452% | 107% | 65.3% |
| OCc1c[nH]c2ccccc12 [Indole-3-carbinol] + COc1ccc(-c2ccc3c(N4CCOCC4)nc(N4C[C@@H](C)O[C@@H](C)C4)nc3n2)cc1CO [KU0063794] (first compound 0.8 µM, partner dose 0.02 µM) | 159% | 33.1% | 79.6% | 537% | 81.2% | 97.6% | 116% | 76.3% | 153% | 67.4% | 149% | 144% | 94.8% | 171% | 84.4% | 147% |  |  |  |
| CC(=O)c1c(C)c2cnc(Nc3ccc(N4CCNCC4)cn3)nc2n(C2CCCC2)c1=O [palbociclib] + CCN(CC)CCCCNc1ncc2cc(-c3cc(OC)cc(OC)c3)c(NC(=O)NC(C)(C)C)nc2n1 [PD173074] (first compound 0.04 µM, partner dose 0.1 µM) | 111% | 25% | 78.1% | 202% | 153% | 110% | 152% | 210% | 302% | 100% | 22.8% | 55.4% | 330% | 40.5% | 45.5% | 99.9% |  |  |  |
| C=CCNC1=C2C[C@@H](C)C[C@H](OC)[C@H](O)[C@@H](C)/C=C(\C)[C@H](OC(N)=O)[C@@H](OC)/C=C\C=C(/C)C(=O)NC(=CC1=O)C2=O [Tanespimycin] + COc1cc(N2CCC(N3CCN(C)CC3)CC2)ccc1Nc1ncc(Cl)c(Nc2ccccc2S(=O)(=O)C(C)C)n1 [NVP-TAE684] (first compound 0.002 µM, partner dose 0.08 µM) | 56.2% | 13.5% | 60.4% | 52.9% | 104% | 121% | 38.1% | 104% | 88.1% | 124% | 58.1% | 81.3% | 59.9% | 85.6% | 66.7% | 86.4% |  |  |  |
| OCc1c[nH]c2ccccc12 [Indole-3-carbinol] + CCCCCCCCCCCC1=C(O)C(=O)C=C(O)C1=O [Embelin] (first compound 0.8 µM, partner dose 1.2 µM) | 62.3% | 16.8% | 103% | 79.4% | 472% | 86.2% | 29.7% | 105% | 217% | 97.4% | 92.9% | 123% | 150% | 68.6% | 66% | 427% |  |  |  |
| C=CCNC1=C2C[C@@H](C)C[C@H](OC)[C@H](O)[C@@H](C)/C=C(\C)[C@H](OC(N)=O)[C@@H](OC)/C=C\C=C(/C)C(=O)NC(=CC1=O)C2=O [Tanespimycin] + N#Cc1c(O)c2c(-c3ccc(-c4ccccc4O)cc3)csc2[nH]c1=O [A769662] (first compound 0.002 µM, partner dose 2 µM) | 70.5% | 24.2% | 54.7% | 466% | 295% | 90.9% | 25.7% | 73.5% | 40.7% | 126% | 121% | 93.8% | 267% | 133% | 56.3% | 95.7% |  |  |  |
| C=CCNC1=C2C[C@@H](C)C[C@H](OC)[C@H](O)[C@@H](C)/C=C(\C)[C@H](OC(N)=O)[C@@H](OC)/C=C\C=C(/C)C(=O)NC(=CC1=O)C2=O [Tanespimycin] + Cc1cc([N+](=O)[O-])ccc1NS(=O)(=O)c1cc(Cl)ccc1Cl [FH535] (first compound 0.002 µM, partner dose 1 µM) | 57.9% | 34.2% | 42.7% | 525% | 532% | 156% | 433% | 186% | 52% | 175% | 91.3% | 81.2% | 159% | 67.8% | 127% | 87.7% |  |  |  |
| CO[C@@H]1[C@H](N(C)C(=O)c2ccccc2)C[C@H]2O[C@]1(C)n1c3ccccc3c3c4c(c5c6ccccc6n2c5c31)C(=O)NC4 [Midostaurin] + CN(NC(=O)CC(=O)NN(C)C(=S)c1ccccc1)C(=S)c1ccccc1 [STA4783] (first compound 0.08 µM, partner dose 0.006 µM) |  | 283% | 157% | 373% | 2050% | 555% | 343% | 181% | 153% | 148% | 71.3% | 228% | 106% | 85.2% |  | 406% | 840% | 135% | 26.4% |
| Clc1ccc(Nc2nnc(Cc3ccncc3)c3ccccc23)cc1 [vatalanib] + O=c1cc(-c2cccc3c2Sc2ccccc2S3)oc(N2CCOCC2)c1 [KU55933] (first compound 2 µM, partner dose 1 µM) | 80.7% | 51.4% | 241% | 141% | 139% | 107% | 103% | 125% | 246% | 37.4% | 123% | 72.5% | 117% | 139% | 62.4% | 60.1% |  |  |  |
| CC(=O)c1c(C)c2cnc(Nc3ccc(N4CCNCC4)cn3)nc2n(C2CCCC2)c1=O [palbociclib] + O=C(O)C(=O)Nc1sc2c(c1C(=O)O)CCNC2 [TCS401] (first compound 0.04 µM, partner dose 1.66667 µM) | 113% | 14% | 107% | 110% | 55.2% | 97.6% | 103% | 92.6% | 99.3% | 159% | 52.7% | 192% | 214% | 121% | 95.7% | 154% |  |  |  |

Looked up one by one from the entries so far:

| SMILES | cleaved PARP positive nuclei fraction [1] | cleaved PARP positive nuclei fraction [2] | cleaved PARP positive nuclei fraction [3] | cleaved PARP positive nuclei fraction [4] | cleaved PARP positive nuclei fraction [5] | cleaved PARP positive nuclei fraction [6] | cleaved PARP positive nuclei fraction [7] | cleaved PARP positive nuclei fraction [8] | cleaved PARP positive nuclei fraction [9] | cleaved PARP positive nuclei fraction [10] | cleaved PARP positive nuclei fraction [11] | cleaved PARP positive nuclei fraction [12] | cleaved PARP positive nuclei fraction [13] | cleaved PARP positive nuclei fraction [14] | cleaved PARP positive nuclei fraction [15] | cleaved PARP positive nuclei fraction [16] | cleaved PARP positive nuclei fraction [17] | cleaved PARP positive nuclei fraction [18] | cleaved PARP positive nuclei fraction [19] |
| --- | --- | --- | --- | --- | --- | --- | --- | --- | --- | --- | --- | --- | --- | --- | --- | --- | --- | --- | --- |
| Clc1ccc(Nc2nnc(Cc3ccncc3)c3ccccc23)cc1 [vatalanib] + O=c1cc(-c2cccc3c2Sc2ccccc2S3)oc(N2CCOCC2)c1 [KU55933] (first compound 2 µM, partner dose 1 µM) | 80.7% | 51.4% | 241% | 141% | 139% | 107% | 103% | 125% | 246% | 37.4% | 123% | 72.5% | 117% | 139% | 62.4% | 60.1% |  |  |  |
| OCc1c[nH]c2ccccc12 [Indole-3-carbinol] + COc1ccc(-c2ccc3c(N4CCOCC4)nc(N4C[C@@H](C)O[C@@H](C)C4)nc3n2)cc1CO [KU0063794] (first compound 0.8 µM, partner dose 0.02 µM) | 159% | 33.1% | 79.6% | 537% | 81.2% | 97.6% | 116% | 76.3% | 153% | 67.4% | 149% | 144% | 94.8% | 171% | 84.4% | 147% |  |  |  |

From the supplement of paper PMC4604168 (melanoma cell lines)
